[ ]: non-standard residue; d: D form. The star is where a group is joined. NMeV = CN[C@H](C(=O)O)C(C)C; Cbz = O=C(OCc1ccccc1)*
Assay: general procedure: solution-phase peptide synthesis; pivaloyl chloride / triethylamine (mixed anhydride)
Settings: HCl; for step yield: of theory

Substance	purity (crude or final not stated) (coupling step, HPLC percentage area)	step yield (coupling step)	purity (crude or final not stated) (late stage modification step, HPLC percentage area)	step yield (late stage modification step)	final HPLC purity (whole synthesis, HPLC percentage area)
Cbz-VV[NMeV]P-OMe	98.5%	79% of theory			
Me2 Val-Val-MeVal-Pro-OMe x HCl			99.9%	92.3% of theory	99.4%

Reference: patent publication US6248865 (dated 2001)
